Record: PubChem BioAssay AID743454 (Peter MacCallum Cancer Centre, 2014)
Test: 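Knock-downs lowering viability or raising caspase 3/7 activity in vorinostat-treated resistant cells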 (primary screen). Cell system: human HCT116-VR colon cancer cells, selected for vorinostat resistance. Knock-down reagent: siRNA pool against human genes, 40 nM siRNA pool. Duration: vorinostat for 24 h, read-out about 72 h after transfection. Treatment: vorinostat at 2.5 µM final. Measurement: 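Cell viability by CellTiter-Fluor and caspase 3/7 activity by luminescence, each scaled to mock wells per plate, duplicates averaged, then robust z-scored over all plates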. Scale: viability robust z-score: higher = more viable cells than screen typical; caspase robust z-score: higher = more caspase 3/7 activity than screen typical. Active means: 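Hits are knock-downs in viability class RV1/RV2 or caspase class CA1/CA2, excluding ones that killed cells in the no-drug cell-count arm; hits then retested with single siRNAs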.
Here is a random part of about 18,000 deposited reagents. 450 of all reagents (2.5%) count as active. 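Single biological run; no consistent viability z cut-off exists, so the class columns, not z-scores, define the calls.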 A number with no mark means an inactive call. No sequences are given here.

no.	gene	viability hit class	caspase hit class	viability robust z-score	caspase robust z-score
1	AKR1D1	no change	no change	0.12	4.06
2	TSEN54	no change	no change	-0.86	0.32
3	MPPED1	no change	no change	0.6	4.33
4	KCNQ4	no change	no change	-1.46	-0.72
5	TCP10L	no change	no change	-0.54	-0.97
6	YKT6	no change	no change	-0.76	0.72
7	OR7A5	no change	no change	-0.04	-1.07
8	PDE10A	no change	no change	1.16	-0.7
9	BCAP31	no change	no change	-1.12	0.08
10	ISLR2	no change	no change	1.16	0.51
11	MIPEP	no change	no change	0.04	-0.37
12	KNCN	no change (active)	CA2 (caspase activation)	-0.88	5.71
13	VGLL3	no change	no change	-0.48	-0.84
14	LOC652759 (retired record)	no change	no change	-0.71	1.15
15	PCDHB1	no change	no change	0.88	-0.57
16	IQCJ	no change	no change	-0.6	-0.57
17	APOBEC3C	no change	no change	-2.16	3.34
18	NAT8	no change (active)	CA1 (caspase activation)	-0.24	5.38
19	BAHCC1	no change	no change	-0.3	0.18
20	CD2AP	no change	no change	0.64	-0.34
21	GPATCH4	no change	no change	-1.04	-1.05
22	LIPJ	no change	no change	0.32	0.3
23	FSTL1	no change	no change	-0.5	1.81
24	PICALM	no change	no change	-0.45	-0.74
25	FGF23	no change	no change	-1.54	0.58
26	PUM1	no change	no change	0.45	-0.3
27	RTL6	no change	no change	1.7	0.76
28	BACH1	no change	no change	-0.66	-0.54
29	PRR35	no change	no change	-1.08	3.48
30	EEF2KMT	no change	no change	-1.56	4.03
31	YBEY	no change	no change	-0.76	-0.61
32	SLC25A48	no change	no change	0.12	-0.58
33	NUDT21	no change	no change	-0.74	0.5
34	RAB11FIP3	no change	no change	-0.25	1.38
35	CHCHD6	no change	no change	0.23	-0.34
36	RHPN2	no change	no change	0.84	-0.66
37	C3orf62	no change	no change	-1.36	0.13
38	PAX3	no change	no change	0.74	-0.37
39	SLC38A11	no change	no change	-1.83	1.06

6 successive reagents already listed, quoted:
no.	gene	viability hit class	caspase hit class	viability robust z-score	caspase robust z-score
22	LIPJ	no change	no change	0.32	0.3
23	FSTL1	no change	no change	-0.5	1.81
24	PICALM	no change	no change	-0.45	-0.74
25	FGF23	no change	no change	-1.54	0.58
26	PUM1	no change	no change	0.45	-0.3
27	RTL6	no change	no change	1.7	0.76
